Assay results published in paper PMC5445283, “Selection and characterization of alanine racemase inhibitors against Aeromonas hydrophila” (BMC Microbiology, 2017).

Tests used:
HeLa cells = format: cell-based; settings: HeLa TC50 / MIC against A. hydrophila; NC: non calculable
Experimental: This assay was performed in a 96-well plate format and used HeLa cells. The cell viability was determined using 3-(4,5-dimethyl-2-thiazole)-2,5-diphenyl-2H-tetrazolium bromide (MTT, Sigma-Aldrich). Cells were seeded in culture medium in microplates (4000 cells/well) and incubated at 37 °C for 24 h before drug treatments. […] The cells were exposed to the compounds for 48 h. At the end of the incubation, the cells were exposed to MTT (0.5 mg/ml) at 37 °C for 4 h. The reduced crystals were dissolved in DMSO, and absorbance was detected at 490 nm. The […] were set as zero absorbance. The percentage of cell survival was calculated using the background-corrected absorbance as follows: Cell survival (%) = (ODexperiment/ODcontrol) × 100. The data represent the mean and standard deviation from triplicate determination.

A. hydrophila Δalr-2 = format: cell-based, Aeromonas hydrophila; settings: relative to MIC against A. hydrophila
Experimental: A. hydrophila HBNUAh01 isolated from infected Paralichthys olivaceus and an A. hydrophila alr-2 knockout mutant were used in this study. Escherichia coli BL-21(DE3) cells were used for protein expression. The pET-25b-alr2 plasmid was used for protein expression. The A. hydrophila and E. coli strains were cultured in Luria-Bertani (LB) medium at 30 °C and 37 °C, respectively. For plasmid selection, 0.5 mmol/l ampicillin (AMP, Sigma–Aldrich Inc., USA) was added to the LB medium for experiments with E. coli.
A. hydrophila was cultured for 18 h, washed with PBS (pH 7.2), and adjusted to an OD600 value of 0.5. Next, the culture was diluted tenfold five times, and aliquots were spread on LB agar in triplicate to determine the number of colony-forming units (CFU)/ml.
The minimum inhibitory concentration (MIC) of the chemical compounds against A. hydrophila was determined using the microdilution method in accordance with the guidelines of the Clinical and Laboratory Standards Institute, document M31-A3 [16], following the method described by Dal Pozzo et al.. Compounds were diluted in DMSO at concentrations of 80, 40, 20, or 10 μg/ml. Appropriate controls were included in all tests. DCS is a naturally occurring antibacterial compound that targets alanine racemase involved in peptidoglycan synthesis. […]

For `O=C(O)Cc1cc(O)ccc1O` [Compound I-3, Homogentisic acid], the “Ti = TC50/MIC (therapeutic index)” value (HeLa cells) was 1.3.

For `N[C@@H]1CON=C1O` [DCS, D-cycloserine, reference compound], the “increase in MIC against A. hydrophila Δalr-2” value (A. hydrophila Δalr-2) was 2 fold.

For `O=C1C=C2C(=CCOC2O)O1` (stereo not shown) [Compound I-2, Patulin], the “increase in MIC against A. hydrophila Δalr-2” value (A. hydrophila Δalr-2) was 4 fold.

With `Oc1ccc(O)cc1` [Compound I-6, Hydroquinone] the “Ti = TC50/MIC (therapeutic index)” value (HeLa cells) was 1.54.
